This is an account of results in publication PMC7938888, “Antidepressant drugs act by directly binding to TRKB neurotrophin receptors” (Cell, 2021).

The chains behind the UniProt entries cited, without tags or fusion partners. Residues count along the entry.
UniProt Q63604, residues 32-821: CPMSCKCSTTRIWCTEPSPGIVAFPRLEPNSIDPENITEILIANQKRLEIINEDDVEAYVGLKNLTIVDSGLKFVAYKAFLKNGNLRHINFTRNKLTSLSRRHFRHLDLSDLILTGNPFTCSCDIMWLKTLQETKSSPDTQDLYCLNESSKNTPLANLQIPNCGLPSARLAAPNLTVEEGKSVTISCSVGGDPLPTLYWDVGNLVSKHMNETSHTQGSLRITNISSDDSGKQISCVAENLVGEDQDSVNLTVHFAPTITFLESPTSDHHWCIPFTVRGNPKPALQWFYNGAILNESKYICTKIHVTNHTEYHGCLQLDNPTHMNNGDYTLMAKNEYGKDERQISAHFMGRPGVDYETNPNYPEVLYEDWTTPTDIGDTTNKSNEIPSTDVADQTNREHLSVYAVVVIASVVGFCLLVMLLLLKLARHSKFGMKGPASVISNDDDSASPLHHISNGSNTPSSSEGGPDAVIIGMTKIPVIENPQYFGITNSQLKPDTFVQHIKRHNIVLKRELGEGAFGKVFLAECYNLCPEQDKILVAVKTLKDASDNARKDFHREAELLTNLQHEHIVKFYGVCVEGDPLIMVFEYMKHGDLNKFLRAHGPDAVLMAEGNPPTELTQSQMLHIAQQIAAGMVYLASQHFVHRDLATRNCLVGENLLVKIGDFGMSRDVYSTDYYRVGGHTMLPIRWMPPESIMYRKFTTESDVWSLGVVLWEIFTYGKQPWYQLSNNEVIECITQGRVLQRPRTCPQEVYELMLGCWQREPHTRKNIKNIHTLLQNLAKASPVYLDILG

These are yes or no findings as the source states them, for the method shown. Some entries that bind do so weakly or less than the wild type.

For the assay, the target named is TRKB, endogenous in rat cortical cells (rat (endogenous in cultured cortical cells)) (UniProt Q63604). Briefly: ELISA; sandwich ELISA on cell lysates: plate coated with capturing anti-TRKB or anti-PLC-γ1 antibody, lysate overnight at 4°C, detection with antibody against PLC-γ1 or pTRKB.Y816 and HRP-conjugate, ECL; cells treated before lysis with BDNF, NGF, cholesterol, β-cyclodextrin, pravastatin or antidepressants. (In general: In an ELISA, binding on a coated surface is turned into a signal by an enzyme label.)

B1: phospholipase C-γ1 (PLC-γ1), endogenous in rat cortical cells (enzyme, UniProt P10686 1-1290)
chain: MAGVGTPCANGCGPSAPSEAEVLHLCRSLEVGTVMTLFYSKKSQRPERKTFQVKLETRQITWSRGADKIEGSIDIREIKEIRPGKTSRDFDRYQEDPAFRPDQSHCFVILYGMEFRLKTLSLQATSEDEVNMWIKGLTWLMEDTLQAATPLQIERWLRKQFYSVDRNREDRISAKDLKNMLSQVNYRVPNMRFLRERLTDFEQRSGDITYGQFAQLYRSLMYSAQKTMDLPFLETNTLRTGERPELCQVSLSEFQQFLLEYQGELWAVDRLQVQEFMLSFLRDPLREIEEPYFFLDELVTFLFSKENSVWNSQLDAVCPETMNNPLSHYWISSSHNTYLTGDQFSSESSLEAYARCLRMGCRCIELDCWDGPDGMPVIYHGHTLTTKIKFSDVLHTIKEHAFVASEYPVILSIEDHCSIAQQRNMAQHFRKVLGDTLLTKPVDIAADGLPSPNQLKRKILIKHKKLAEGSAYEEVPTSVMYSENDISNSIKNGILYLEDPVNHEWYPHYFVLTSSKIYYSEETSSDQGNEDEEEPKEASGSTELHSSEKWFHGKLGAGRDGRHIAERLLTEYCIETGAPDGSFLVRESETFVGDYTLSFWRNGKVQHCRIHSRQDAGTPKFFLTDNLVFDSLYDLITHYQQVPLRCNEFEMRLSEPVPQTNAHESKEWYHASLTRAQAEHMLMRVPRDGAFLVRKRNEPNSYAISFRAEGKIKHCRVQQEGQTVMLGNSEFDSLVDLISYYEKHPLYRKMKLRYPINEEALEKIGTAEPDYGALYEGRNPGFYVEANPMPTFKCAVKALFDYKAQREDELTFTKSAIIQNVEKQDGGWWRGDYGGKKQLWFPSNYVEEMINPAILEPEREHLDENSPLGDLLRGVLDVPACQIAIRPEGKNNRLFVFSISMPSVAQWSLDVAADSQEELQDWVKKIREVAQTADARLTEGKMMERRKKIALELSELVVYCRPVPFDEEKIGTERACYRDMSSFPETKAEKYVNKAKGKKFLQYNRLQLSRIYPKGQRLDSSNYDPLPMWICGSQLVALNFQTPDKPMQMNQALFMAGGHCGYVLQPSTMRDEAFDPFDKSSLRGLEPCVICIEVLGARHLPKNGRGIVCPFVEIEVAGAEYDSTKQKTEFVVDNGLNPVWPAKPFHFQISNPEFAFLRFVVYEEDMFSDQNFLAQATFPVKGLKTGYRAVPLKNNYSEDLELASLLIKIDIFPAKENGDLSPFSGTSLRERASDASSQLFHVRAREGSFEARYQQPFEDFRISQEHLADHFDSRERRAPRRTRVNGDNRL
As to B1, the binding entry was “binds”.
